Results reported in article PMC7819943, “Rice protein-binding microarrays: a tool to detect cis-acting elements near promoter regions in rice”.
This is one part of the list.

The sequences below were run against T1, OsSMF1 (Oryza sativa, UniProt Q6ZLB0 1-436) (assay: protein-binding microarray (RPBM); PBS, 2% BSA, 51.3 ng/ul salmon testes DNA, 50 uM zinc acetate, 200 nM TF, 25 C, 1 h; high values mean tight binding). Conditions: protein: recombinant; tags: N-terminal polyhistidine and DsRed monomer fusion (pET32a); chain copies: 2; label: CyDye5-dUTP incorporated in the synthesized complementary strand; 3' TTTTT single-stranded linker to array surface; dsDNA, one strand shown.
T1 sequence: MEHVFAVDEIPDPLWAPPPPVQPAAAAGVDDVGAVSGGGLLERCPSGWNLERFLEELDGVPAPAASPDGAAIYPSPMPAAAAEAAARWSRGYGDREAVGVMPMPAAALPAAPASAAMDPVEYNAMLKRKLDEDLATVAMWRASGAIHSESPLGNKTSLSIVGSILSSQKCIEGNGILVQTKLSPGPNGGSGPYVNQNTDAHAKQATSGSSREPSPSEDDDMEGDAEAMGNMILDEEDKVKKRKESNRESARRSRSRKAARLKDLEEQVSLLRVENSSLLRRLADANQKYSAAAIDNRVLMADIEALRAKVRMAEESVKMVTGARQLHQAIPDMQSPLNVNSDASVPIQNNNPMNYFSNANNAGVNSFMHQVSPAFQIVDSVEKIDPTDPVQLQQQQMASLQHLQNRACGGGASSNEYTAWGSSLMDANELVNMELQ
In short: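 The binding signal is fluorescence intensity per feature, in arbitrary units, read on an Axon 4000B scanner. Polyhistidine- and DsRed-tagged transcription factors (N-terminal fusions) from E. coli BL21-CodonPlus were purified on Ni–NTA and applied at 200 nM for 1 h at 25 °C to a double-stranded, BSA-blocked custom Agilent array in buffer with 50 µM zinc acetate.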
“ACTTATTAGTTGTACTCCTACGTACGTATGACTGTCGGAACGGAGTCACCTAGTGCAG” was tested, and the binding signal was 4130 fluorescence intensity (a.u.).
For “CACGATACCGCGCCGATCTATTTTATCCTGAAACACATTACGGAGTCACCTAGTGCAG”, the binding signal was 26100 fluorescence intensity (a.u.).
With “CTTCTGTCGTGGGATTCCGTCGAATCCGGTGATTGTTACACGGAGTCACCTAGTGCAG” the binding signal was 17300 fluorescence intensity (a.u.).
In the case of “CACCTGTCTGCCAGAGTAGCCGACGTGGCACGAGTAATCTCGGAGTCACCTAGTGCAG”, the binding signal is reported as 10200 fluorescence intensity (a.u.).
In the case of “GTTATGATGGGGATAACGAGTTTCAAACACGAAGCACCTGCGGAGTCACCTAGTGCAG”, the binding signal is reported as 3340 fluorescence intensity (a.u.).
With “AGTCGTTAAGAACATGTATATAAAAGATTTGCACACAAATCGGAGTCACCTAGTGCAG” the binding signal was 25500 fluorescence intensity (a.u.).
“ACAGATATTTTCGCTTTTCAACCAGCGTTGACTCGTCGTTCGGAGTCACCTAGTGCAG” was tested, and the binding signal was 3190 fluorescence intensity (a.u.).
For “CGCTGCGCAGACGTCCACTCATTCGTTTCCGGCGTGGCATCGGAGTCACCTAGTGCAG”, the binding signal was 6210 fluorescence intensity (a.u.).
With “GCCGATGACGCGGCGCCAGCGCCACCGCCTGCACGCGGCCCGGAGTCACCTAGTGCAG” the binding signal was 7430 fluorescence intensity (a.u.).
For “TGGAGAATGCCAACTTTGCACATTAAACGCTTGCATGTTTCGGAGTCACCTAGTGCAG”, the binding signal was 3140 fluorescence intensity (a.u.).
With “CTAGCCAAGAAGCATCGATCAGCTGAGTGAGCTGGCAAGCCGGAGTCACCTAGTGCAG” the binding signal was 5940 fluorescence intensity (a.u.).
With “AAAAGATAAGTCACGCATAAAGTATTCATCATGTTTTATCCGGAGTCACCTAGTGCAG” the binding signal was 3600 fluorescence intensity (a.u.).
In the case of “CAATTTGGTAGCCCTTGAGTCTTCCCTGTCGGCAAATTGACGGAGTCACCTAGTGCAG”, the binding signal is reported as 30100 fluorescence intensity (a.u.).
“ACAAATCCAACACAAATTCCATCTCAGCATTTTCTCCAGTCGGAGTCACCTAGTGCAG” was tested, and the binding signal was 5250 fluorescence intensity (a.u.).
With “CCTCTATTTTCCATCTCCAACTATGTCAGCAAAAGAAATCCGGAGTCACCTAGTGCAG” the binding signal was 4190 fluorescence intensity (a.u.).
With “GAGGTCTGCGTATTTGACGAGTCACCGGAGGTCTTCTCCACGGAGTCACCTAGTGCAG” the binding signal was 6190 fluorescence intensity (a.u.).
For “GGGCAATTTCGCATTGGTGCAGGTTCCACATCACGATGCCCGGAGTCACCTAGTGCAG”, the binding signal was 4200 fluorescence intensity (a.u.).
With “GCACGCTGCATGCACGCATGCATGAAACTCTCATCTGACACGGAGTCACCTAGTGCAG” the binding signal was 3780 fluorescence intensity (a.u.).
“AGGATGCCCATTGTCATTGATATGGTATGGTGATGAAGAGCGGAGTCACCTAGTGCAG” was tested, and the binding signal was 4170 fluorescence intensity (a.u.).
For “GAGGGAGTACACGTGACATATCCACATTTTCATCATCCTTCGGAGTCACCTAGTGCAG”, the binding signal was 6720 fluorescence intensity (a.u.).
For “CACGTCAACTGACGCTAAATGCTGTGTCACCGCGGATGGGCGGAGTCACCTAGTGCAG”, the binding signal was 5620 fluorescence intensity (a.u.).
“GATGAGGCTTTCTCTTGCCACGCAGGACAGCATGTGTTTGCGGAGTCACCTAGTGCAG” was tested, and the binding signal was 7390 fluorescence intensity (a.u.).
With “TTTTCAATGGCCAGTTGTCCTTAGTTGATATGTATGTAAACGGAGTCACCTAGTGCAG” the binding signal was 6340 fluorescence intensity (a.u.).
With “AGGCTCTAACCAGCGGTGCAATGCCGTGTCACCGAGCCTACGGAGTCACCTAGTGCAG” the binding signal was 6540 fluorescence intensity (a.u.).
In the case of “CTTTAAAAGCTCGTCATCTTTCTCACACTTTTGTAGTTGTCGGAGTCACCTAGTGCAG”, the binding signal is reported as 3150 fluorescence intensity (a.u.).
In the case of “TCAATCCCGTTCAGGCCCATGGGCCGCACGCGACTGTAATCGGAGTCACCTAGTGCAG”, the binding signal is reported as 3210 fluorescence intensity (a.u.).
For “CTGAATCTATGGTCATGTGTGGCCTAACCCAAACCCGTCTCGGAGTCACCTAGTGCAG”, the binding signal was 14700 fluorescence intensity (a.u.).
In the case of “GAAGCCCAAGTCGAGCCGAGCCGCATGGGCGGCGCCGCTGCGGAGTCACCTAGTGCAG”, the binding signal is reported as 19800 fluorescence intensity (a.u.).
With “TAATTGTGATCAAAATTGTAACAAATGCACGGTCATTAAGCGGAGTCACCTAGTGCAG” the binding signal was 3320 fluorescence intensity (a.u.).
With “GCTCACGTCGTTCCAGGTCACCGTGCTCGGCGACGGCGCCCGGAGTCACCTAGTGCAG” the binding signal was 4540 fluorescence intensity (a.u.).
With “CTGGCCACGTGGTCCTCGGTGGCGGCTCCGAGAAGCCCGACGGAGTCACCTAGTGCAG” the binding signal was 9530 fluorescence intensity (a.u.).
“TTTATTATTAGTTTACGTTTAATACTTCTAATTAGTATAACGGAGTCACCTAGTGCAG” was tested, and the binding signal was 3240 fluorescence intensity (a.u.).
For “GATCAGATTAAAGGGGATCAGCTCACTTCTGATATTTCAGCGGAGTCACCTAGTGCAG”, the binding signal was 30600 fluorescence intensity (a.u.).
“GTTGGCCACTAGCAATGGCATTGTCGGTGAGTTTGGAGCTCGGAGTCACCTAGTGCAG” was tested, and the binding signal was 3720 fluorescence intensity (a.u.).
In the case of “TACTAATTTAATCCCCTTTGATCTGCTGACTGGTTTACTACGGAGTCACCTAGTGCAG”, the binding signal is reported as 5140 fluorescence intensity (a.u.).
In the case of “TCGCGATCTCCGTGTCCCGCCCGCCGTCCATCGACCTCTGCGGAGTCACCTAGTGCAG”, the binding signal is reported as 3550 fluorescence intensity (a.u.).
In the case of “CTTTTATTTTATAAAGTTAGAATCCACGTATAACAGACCTCGGAGTCACCTAGTGCAG”, the binding signal is reported as 4850 fluorescence intensity (a.u.).
“CACCAGCATTAGCTGGCAAAACAGATTGATGTTATACAAGCGGAGTCACCTAGTGCAG” was tested, and the binding signal was 3170 fluorescence intensity (a.u.).
For “CCTTGCCGCCGGCCAATTTATTGACTCACCGAGAAGTTTGCGGAGTCACCTAGTGCAG”, the binding signal was 5600 fluorescence intensity (a.u.).
“GGATTTGGCTGCTGCATCACTCAGTTTACTGTAGTCTGCACGGAGTCACCTAGTGCAG” was tested, and the binding signal was 3580 fluorescence intensity (a.u.).
For “CATGGTGTGCGTGTACGTTCATGTTGTGACACGCTATATACGGAGTCACCTAGTGCAG”, the binding signal was 5510 fluorescence intensity (a.u.).
For “AGGTGTGGGCCCAACAGATCACATCCTAGTCACCCGGTTGCGGAGTCACCTAGTGCAG”, the binding signal was 9790 fluorescence intensity (a.u.).
